The whole screen tested about 340,000 compounds, of which about 6,200 (1.8%) were called active. This list was built around the results that the source calls inconclusive (neither active nor inactive); the mix of calls is not that of the screen. Calls follow the shape of the dose curve; as a rule, active = well fitted activation curve with a large enough effect; inconclusive = small, poorly fitted or top-dose-only effect; inactive = no such curve, though single readings can be large or run the other way. Where the call is inconclusive, the potency comes from a doubtful curve fit.
Assay: A quantitative high throughput screen for small molecules that induce DNA re-replication in SW480 colon adenocarcinoma cells. Also: nearly all actives have a fitted effect of over 55% in size. As to re-replication activation: % of control where 0% means no effect.
Details: Hoechst DNA content imaging, 48 h; re-replication activation: at 46.1 µM (top of the series) unless noted
Procedure, shortened: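 Image-based read-out: total Hoechst fluorescence of nuclei (405 nm excitation, 500-530 nm emission), with hits raising the fraction of high-intensity nuclei. SW480 colon cells incubated 48 hr with compounds at 37 C.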
For `COc1ccc(C(=O)Cn2c(Cl)nc3c2c(=O)n(C)c(=O)n3C)cc1`, the “re-replication activation” value was inactive: -49.6%.
In the case of `Cc1ccc(S(=O)(=O)N(CC(=O)Nc2ccc(Cl)cc2)C(=O)N2CCN(C)CC2)cc1`, the Potency is reported as inconclusive: 18.4 µM [activator, single point].
For `CCOC(=O)c1cn(C2CC2)c2c(F)c(F)c(F)cc2c1=O`, the Potency was inconclusive: 1.3 µM [activator, full curve, poor fit].
In the case of `CCN(CC)CCNC(=O)c1ccc2c(=O)n(CCc3ccccc3)c(=O)[nH]c2c1`, the Potency is reported as inconclusive: 20.6 µM [activator, single point].
In the case of `Cc1ccc(Cl)cc1N1CCN(C(=O)CNC(=O)c2ccc(Br)o2)CC1`, the “re-replication activation” value is reported as inactive: 3.2%.
For `COc1ccccc1N/C(N)=N/c1nc(CSc2ccc(C)cc2)cc(=O)[nH]1`, the re-replication activation was inactive: 0.175% [at 9.22 µM].
For `O=C(NCCC(=O)N(Cc1ccco1)Cc1cccs1)c1ccc([N+](=O)[O-])cc1`, the “re-replication activation” value was inactive: 1.69%.
For `O=[N+]([O-])c1ccc(N=Nc2ccc(O)cc2O)cc1`, the Potency was inconclusive: 35.5 µM [activator, single point].
With `O=C(Cc1ccc(O)cc1)NCCNC(=S)NCc1ccccc1` the Potency was inconclusive: 29.1 µM [activator, single point].
For `Cc1cccc2c1-c1sc(C(=O)NCCCN3CCCC(C)C3)cc1CO2` (centres undefined), the Potency was active: 18.4 µM.
With `CC12CCC(C(=O)Nc3ccc(SC(F)F)cc3)(CC1=O)C2(C)C` (centres undefined) the Potency was inconclusive: 25.9 µM [activator, single point].
For `COc1ccc(-c2ccc(SCC(=O)c3ccccc3)nn2)cc1OC`, the Potency was inconclusive: 32.6 µM [activator, partial curve, poor fit].
With `CCc1ccc(-n2c(=S)sc3c(=O)n(-c4ccccc4C)c(SCC(=O)O)nc32)cc1` the Potency was inconclusive: 13 µM [activator, single point].
For `CN(c1ccc(OC(=O)CN2C(=O)NC3(CCCC3)C2=O)cc1)S(=O)(=O)c1ccccc1`, the “re-replication activation” value was inactive: 2.81%.
For `O=C(CNC(=S)NC(=O)c1ccc(Br)o1)c1ccccc1`, the Potency was active: 20.6 µM.
For `C(=NN1CCCCCC1)c1ccc2ccccc2n1`, the “re-replication activation” value was inactive: -1.47%.
For `O=C1C(=O)N(CCN2CCOCC2)C(c2ccc([N+](=O)[O-])cc2)/C1=C(/O)c1ccc2c(c1)OCO2` (centres undefined), the Potency was inconclusive: 23.1 µM [activator, single point].
In the case of `CN(CCOc1ccccc1)C(=O)C1CCC(=O)N(CCCN2CCCC2=O)C1` (centres undefined), the Potency is reported as inconclusive: 6.51 µM [activator, partial curve, poor fit].
With `O=C(NCCCN1CCOCC1)C(=O)N/N=C/c1ccccc1O` the Potency was inconclusive: 29.1 µM [activator, single point].
For `COc1ccc(C2c3ccc(O)cc3Oc3ncn4nc(-c5ccco5)nc4c32)cc1OC` (centres undefined), the Potency was inconclusive: 23.1 µM [activator, single point].
With `CCOC(=O)c1cnc2c(ccc3ccccc32)c1NCCCN(C)C` the Potency was inconclusive: 20.6 µM [activator, single point].
In the case of `NC(=O)c1ccc(C(F)(F)F)n(Cc2c(Cl)cccc2Cl)c1=O`, the Potency is reported as inconclusive: 29.1 µM [activator, single point].
For `Cn1cccc1/C=N/NC(=O)CSc1nc2ccccc2n1C`, the re-replication activation was inactive: -5.43% [at 9.22 µM].
With `O=C(CN1C(=O)c2ccccc2C1=O)Nc1ccccc1` the Potency was inconclusive: 2.59 µM [activator, single point].
For `Cc1ccc(NC(=O)CCc2c(C)nn(-c3ccc(N4CCCCC4)nn3)c2C)cc1C`, the Potency was inconclusive: 2.06 µM [activator, partial curve, poor fit].
With `Cc1cc(C(=O)NC2CC(C)(C)Cc3c2cnn3-c2ccccc2)n(C)n1` (centres undefined) the “re-replication activation” value was inactive: 2.59%.
In the case of `CCc1cc(Cn2nc(-c3ccccc3)cc2C(=O)O)on1`, the Potency is reported as inconclusive: 29.1 µM [activator, single point].
For `COCc1cc(C)nc(SCc2ccc(F)cc2)c1C#N`, the “re-replication activation” value was inactive: -10.5%.
In the case of `CCOc1ccc(N(C)S(=O)(=O)c2cc(-c3cc(C)no3)ccc2C(C)C)cc1`, the Potency is reported as inconclusive: 1.46 µM [activator, partial curve, poor fit].
In the case of `CC(=O)C1=C(C)OC(N)=C(C#N)C1c1ccncc1` (centres undefined), the “re-replication activation” value is reported as inactive: 5.43%.
In the case of `Cc1nn(C)cc1CNC(=O)c1ccc(F)cc1`, the Potency is reported as inconclusive: 16.4 µM [activator, single point].
In the case of `COc1ccccc1CNC(=O)c1ccc(-c2ccccc2Cl)o1`, the Potency is reported as inconclusive: 18.4 µM [activator, single point].
In the case of `O=C(c1ccc(Br)cc1)C(CN1CCOCC1)c1ccccc1` (centres undefined), the Potency is reported as inconclusive: 2.91 µM [activator, full curve, poor fit].
For `O=C(CCc1ccccc1)Nc1c(F)c(F)c(F)c(F)c1F`, the “re-replication activation” value was inactive: -24.3%.
With `C[C@@H](NC(=O)OC(C)(C)C)c1nnc(S(=O)(=O)Cc2ccccc2)o1` the Potency was active: 13 µM.
For `Cc1cccc(NC(=O)c2cccc3c2C(=O)c2ccccc2-3)c1`, the “re-replication activation” value was inactive: -0.66%.
With `COc1ccccc1C(=O)Nc1ccc2c(c1)n(C)c(=O)n2C` the “re-replication activation” value was inactive: -17.3%.
In the case of `CC1(C)CC(/C=C/c2ccccc2)=Nc2ccccc2N1`, the Potency is reported as inconclusive: 23.1 µM [activator, single point].
For `COc1ccccc1-c1noc(CSc2nc(N)cc(=O)[nH]2)n1`, the “re-replication activation” value was inactive: -17.1%.
For `O=C(COc1ccccc1)N/N=C/c1ccc2c(c1)OCO2`, the Potency was inconclusive: 5.17 µM [activator, full curve, poor fit].
In the case of `CCn1c2ccccc2c2cc(NS(=O)(=O)c3ccccc3C)ccc21`, the Potency is reported as inconclusive: 29.1 µM [activator, single point].
For `CC(=O)NC1[C@H](O)C[C@@](O)(C(=O)O)O[C@H]1[C@H](O)[C@H](O)CO` (some centres undefined), the “re-replication activation” value was inactive: -0.646%.
For `CCOc1ccc(NC(=O)CN(C)C(=O)c2ccc(C3SCCS3)cc2)cc1OCC`, the “re-replication activation” value was inactive: -4.49%.
For `COc1cc2c(cc1OC)C(=O)N1[C@H]3c4ccccc4OC[C@@H]3[C@H](c3ccccc3)[C@]1(C)C(=O)N2`, the Potency was inconclusive: 20.6 µM [activator, partial curve, poor fit].
In the case of `Nc1ncn([C@H]2C[C@H](O)[C@@H](CO)O2)c(=O)n1`, the Potency is reported as active: 0.231 µM.
In the case of `COc1ccc(Nc2nc(NCc3ccco3)nc(N/N=C/c3ccccc3)n2)cc1`, the “re-replication activation” value is reported as inactive: -2.52%.
In the case of `C=CCNC(=S)N/N=C/c1ccccc1OCCOc1ccccc1`, the Potency is reported as inconclusive: 29.1 µM [activator, single point].
With `COc1ccc(OC(C)C(=O)N2CCc3ccccc3C2)cc1` (centres undefined) the Potency was inconclusive: 29.1 µM [activator, single point].
With `CN(C)/N=C/c1cc([N+](=O)[O-])ccc1O` the Potency was inconclusive: 0.0046 µM [activator, full curve, poor fit].
For `COc1ccc(-c2cc(-c3ccccc3)nc(Cl)n2)cc1OC`, the Potency was inconclusive: 29.1 µM [activator, single point].
In the case of `COc1ccc(/C=N/NC(=O)c2ccccc2O)cc1COc1ccccn1`, the Potency is reported as inconclusive: 29.1 µM [activator, single point].
With `Cc1[nH]c2ccccc2c1C1=CC(=O)C=CC1=O` the Potency was inconclusive: 20.6 µM [activator, single point].
In the case of `COc1cc(/C=N/NC(=S)Nc2cccnc2)cc(OC)c1OC`, the Potency is reported as inconclusive: 18.4 µM [activator, single point].
In the case of `Cc1cc(Nc2nc(Cl)c(Cl)cc2Cl)n(-c2ccccc2)n1`, the “re-replication activation” value is reported as inactive: 26.4%.
In the case of `C/C(=N\NC(=O)c1c(Cl)c(C)nn1C)c1cccc(NC(=O)c2cccc(F)c2)c1`, the Potency is reported as inconclusive: 29.1 µM [activator, single point].
In the case of `COC(=O)c1cccc(NC(=O)NC23CC4CC(CC(C4)C2)C3)c1`, the Potency is reported as inconclusive: 35.5 µM [activator, single point].
For `Cc1nn(-c2ccccc2)c2nc(-c3ccncc3)cc(C(=O)NCc3ccco3)c12`, the Potency was inconclusive: 23.1 µM [activator, single point].
For `Cc1sc(NC(=O)c2ccco2)nc1-c1ccc2c(c1)CC(C)N2C(=O)C1CC1` (centres undefined), the Potency was active: 6.31 µM.
For `O=C(Nc1ccccc1N1CCCCC1)c1ccc(-c2cc(Cl)ccc2Cl)o1`, the Potency was inconclusive: 6.51 µM [activator, single point].
For `O=C(/C=C/c1ccccc1)Nc1cccc(C(=O)NCCCc2ccccc2)c1`, the Potency was inconclusive: 1.16 µM [activator, single point].
In the case of `CC(C)(C)c1ccc(OCC(=O)NNC(=S)NC(=O)c2ccccc2[N+](=O)[O-])c(Br)c1`, the Potency is reported as inconclusive: 0.92 µM [activator, full curve, poor fit].
For `COc1cccc(-c2nnc(SC(C(=O)c3c[nH]c4ccccc34)c3ccccc3)n2C)c1` (centres undefined), the Potency was inconclusive: 20.6 µM [activator, single point].
For `C/C(=N\NC1=NCCN1)c1ccc(Cl)cc1`, the Potency was inconclusive: 25.9 µM [activator, single point].
With `Cc1ccc(Cl)cc1NC(=S)N1CCC(c2ccccc2)C1` (centres undefined) the Potency was inconclusive: 18.4 µM [activator, single point].
For `COC(=O)N/N=C/c1cc(Cl)c(OCc2ccc(F)cc2)c(OC)c1`, the Potency was inconclusive: 29.1 µM [activator, single point].
With `Cc1csc(NC(=O)c2cc3c(s2)CCC3)n1` the Potency was inconclusive: 0.231 µM [activator, full curve, poor fit].
With `O=C(Cn1ncc(Cl)c(Cl)c1=O)N1CCN(S(=O)(=O)c2ccc3ccccc3c2)CC1` the Potency was inconclusive: 2.59 µM [activator, full curve, poor fit].
In the case of `CNc1c([N+](=O)[O-])cnn1-c1cccc(Cl)n1`, the “re-replication activation” value is reported as inactive: -160%.
With `CCOC(=O)c1cc2c(=O)c3cc(C)ccc3oc2nc1C` the Potency was inconclusive: 20.6 µM [activator, single point].

Source: PubChem BioAssay AID624297 (National Center for Advancing Translational Sciences (NCATS), 2012)
Potency is read from the fitted curve at half-maximal effect.
